Record: PubChem BioAssay AID1259405 (NCATS, 2018)

Aim: 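Silenced genes that increase secreted GFP made by CHO cells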 (primary screen)
System: Chinese hamster CHO-K1 ovary cells with stable secreted eGFP expression
Reagent: single siRNA against mouse genes, 0.8 pmol siRNA per well (2 µl of 400 nM stock)
Time to read-out: 3 days
Detection: 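Percent of the per-plate non-targeting control median for intracellular GFP per well by laser scanning cytometry and for cell viability by ATP luminescence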
Scale: GFP, % of control: higher = more GFP per well, higher productivity
Rule for the call: 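Called active when intracellular GFP, relative to negative control, is at or above 120%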
The whole screen tested about 50,000 reagents; this is a random part of them. About 4,000 of them (8%) were called active. 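Mouse siRNA library applied to hamster cells; one well for each siRNA.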 The numbers tell different reagents against one gene apart. Not all columns of the deposit are shown.

GFP, % of control, by gene and reagent
Tceanc2: #1 93.4 inactive; #2 31.4 inactive; #3 147 active; #4 58.9 inactive; #5 65.9 inactive; #6 141 active
Rbpjl: #1 108 inactive; #2 96.6 inactive
Ccdc71l (coiled-coil domain containing 71 like): #1 77 inactive; #2 79 inactive; #3 102 inactive
Cds2 (CDP-diacylglycerol synthase 2): #1 107 inactive; #2 105 inactive; #3 126 active
Tmem97 (transmembrane protein 97): #1 63.9 inactive; #2 101 inactive; #3 107 inactive
Nek11 (NIMA (never in mitosis gene a)-related expressed kinase 11): #1 85.3 inactive
Ppm1j (protein phosphatase 1J): #1 73.4 inactive; #2 43.4 inactive; #3 66.2 inactive
Pon3 (paraoxonase 3): #1 135 active; #2 89.8 inactive; #3 57.6 inactive
Dhx33 (DEAH-box helicase 33): #1 89.9 inactive; #2 85.6 inactive; #3 125 active
Or8b9 (olfactory receptor family 8 subfamily B member 9): #1 101 inactive; #2 25.6 inactive; #3 91.7 inactive
Zfp85 (zinc finger protein 85): #1 106 inactive; #2 81.8 inactive
Hccs (holocytochrome c synthetase): #1 94 inactive; #2 93.7 inactive; #3 57.4 inactive
Syt17 (synaptotagmin XVII): #1 62.2 inactive; #2 72.3 inactive; #3 73.5 inactive
Or2t26 (olfactory receptor family 2 subfamily T member 26): #1 59.2 inactive; #2 106 inactive; #3 66.1 inactive
Ocln (occludin): #1 66.4 inactive; #2 89 inactive; #3 112 inactive
Aldh3b1 (aldehyde dehydrogenase 3 family, member B1): #1 97.7 inactive; #2 117 inactive; #3 91.1 inactive
Ddx54 (DEAD box helicase 54): #1 48.3 inactive; #2 68.7 inactive; #3 131 active
Rock1 (Rho-associated coiled-coil containing protein kinase 1): #1 62.5 inactive
Oas1c (2'-5' oligoadenylate synthetase 1C): #1 139 active; #2 71 inactive; #3 69.1 inactive
Trappc11 (trafficking protein particle complex 11): #1 44.1 inactive; #2 84.4 inactive; #3 78.3 inactive
Sox17 (SRY (sex determining region Y)-box 17): #1 83.4 inactive; #2 65.8 inactive; #3 96.4 inactive
Rbbp8 (retinoblastoma binding protein 8, endonuclease): #1 75.9 inactive; #2 150 active
Gphn (gephyrin): #1 58.2 inactive; #2 107 inactive; #3 104 inactive
Uqcrb (ubiquinol-cytochrome c reductase binding protein): #1 19 inactive; #2 87.8 inactive; #3 84 inactive
Slc8a3: #1 72.4 inactive; #2 114 inactive; #3 93 inactive
Sox30 (SRY (sex determining region Y)-box 30): #1 66.7 inactive; #2 73.4 inactive; #3 75.7 inactive
Dglucy (D-glutamate cyclase): #1 89.9 inactive; #2 77.9 inactive; #3 109 inactive
Or13a1 (olfactory receptor family 13 subfamily A member 1): #1 72.9 inactive; #2 82.9 inactive; #3 40.9 inactive
Tmem263 (transmembrane protein 263): #1 68.2 inactive; #2 80 inactive; #3 105 inactive
Mtpn (myotrophin): #1 78.2 inactive; #2 77 inactive; #3 66.4 inactive

Taken from above.
Aldh3b1 (aldehyde dehydrogenase 3 family, member B1) #2, Call → inactive
Under “Call”, Tmem97 (transmembrane protein 97) #3 shows inactive
Or8b9 (olfactory receptor family 8 subfamily B member 9) #1, GFP, % of control → 101
Value of Tceanc2 #4 in “Call”: inactive
